Laboratory results taken from article PMC6548343.
Results are given in words; binding and its absence hold for the method and conditions named. Some binding calls cover weakened binding; strength is not graded here.

Amino acid sequences for entries named in this document (tags omitted). Residues count along the entry.
UniProt P53115, residues 356-691: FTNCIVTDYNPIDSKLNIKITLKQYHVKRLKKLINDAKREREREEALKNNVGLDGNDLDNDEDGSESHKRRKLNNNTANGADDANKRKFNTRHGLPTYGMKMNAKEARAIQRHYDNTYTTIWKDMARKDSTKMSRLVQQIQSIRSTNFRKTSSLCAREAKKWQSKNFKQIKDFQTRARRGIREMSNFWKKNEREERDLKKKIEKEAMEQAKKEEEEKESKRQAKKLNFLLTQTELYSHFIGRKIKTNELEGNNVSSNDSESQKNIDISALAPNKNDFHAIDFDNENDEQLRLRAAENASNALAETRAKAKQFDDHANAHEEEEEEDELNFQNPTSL
UniProt P35189: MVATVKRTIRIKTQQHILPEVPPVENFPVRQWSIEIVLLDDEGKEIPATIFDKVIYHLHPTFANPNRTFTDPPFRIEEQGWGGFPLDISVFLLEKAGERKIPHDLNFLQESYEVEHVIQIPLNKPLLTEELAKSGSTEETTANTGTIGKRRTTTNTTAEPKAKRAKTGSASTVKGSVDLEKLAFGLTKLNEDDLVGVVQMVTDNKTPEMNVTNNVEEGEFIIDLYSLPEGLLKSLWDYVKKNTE

Target: Ino80 (356–691 aa, named as N-FLAG) (S. cerevisiae) (UniProt P53115)
Experiment: affinity co-purification (FLAG resin, then Mono Q) with SDS-PAGE or EM of the fractions; whole-cell extract of S. cerevisiae, 30%–55% ammonium sulfate cut, FLAG resin 2 h at 4°C, washes with 500 mM and 50 mM ammonium sulfate, elution with 3×FLAG peptide, Mono Q gradient 100–1000 mM ammonium sulfate

binding: binds
Substance: TATA-binding-protein-associated factor 14 (Taf14) (from UniProt P35189 1-244)
